Here are results for 18 compounds from PubChem BioAssay (NCATS).

Where “and” joins values, the source holds several entries; their conditions need not be identical. Identical values can stand only once. The list shows a part of the results. Further columns of the screen follow, without active or inactive calls. Most of these compounds were active or inconclusive in the main read-out, so they are no random draw. For some of these results: The note in brackets gives the kind of curve behind each potency; many fits are weak.

Assay [1] in a line: qHTS Assay for Modulators of Human Peripheral Myelin Protein 22 (PMP22) Expression/Activity (AID 1967). Conditions: Cell-based PMP22 reporter, dual-color luciferase ratio. In short, it runs like this:
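Readout is the corrected green/red luminescence ratio after 24 h compound exposure, normalised to untreated cells (0%). Engineered MSC80 mouse Schwann cells express green luciferase from the mouse Pmp22 promoter and red luciferase from EF-alpha as internal control.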

Assay [2] can be described thus: qHTS for identification of novel therapeutic agents for treatment of microphthalmiaassociated transcription factor (MiT) renal cell carcinoma (RCC) (AID 1963991).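 As to z-score: curves scaled with 100% = DMSO viability and 0% = empty wells.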 Conditions: CellTiter-Glo, 48 h; for z-score: stronger effect = lower value. A digest of the protocol: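 UOK109/UOK124/UOK145 (TFE3 fusions, three partners); 500 cells/well; MIPE v4.0, 1912 cpds, 11 conc.; 48 h, 37 C; CellTiter-Glo, 15 min RT; lum. Norm.: DMSO 100%, empty 0%.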

The nature of assay [3]: qHTS assay for small molecule agonists of retinoid X receptor alpha signaling (AID 588544). Conditions: HEK293T RXRa-UAS-bla, beta-lactamase reporter, 18 h; 530 nm emission. For orientation: Quantitative high-throughput screening tests each substance at several concentrations.
Assay [4] in a line: qHTS assay for small molecule antagonists of retinoid X receptor alpha signaling (AID 588546).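 Also: cells stimulated with 9-cis-retinoic acid as agonist; % is scaled to controls: 0 for no effect and ±100 for the full control effect.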 The conditions noted are these: HEK293T RXRa-UAS-bla, beta-lactamase ratio, antagonist mode; measured here: W530 green channel, cytotoxicity proxy. In short, it runs like this:
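Beta-lactamase reporter inhibition, read as CCF4 fluorescence ratio (ex 405, em 460/530 nm) after 2 h at RT. HEK293T UAS-bla cells, 2500/well, were stimulated with 9-cis-RA at 500 or 100 nM final alongside test compound for 18 h at 37 C.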

The nature of assay [5]: Nrf2 qHTS screen for inhibitors: Validation (AID 493153). The conditions noted are these: A549 ARE-Fluc reporter, 18-24 h; AC50: CellTiter-Fluor fluorescence read, measured here: cytotoxicity CellTiter-Fluor AC50; viability change: measured here: cytotoxicity max response. A digest of the protocol: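 Concentration-response on A549 ARE_Fluc reporter cells exposed 18-24 h at 37 C, 5% CO2. Cytotoxicity read first by CellTiter-Fluor fluorescence (Ex 405/Em 525), then Nrf2 inhibition by BugLite luminescence after 15 min.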

Assay [6] can be described thus: S16 Schwann cell PMP22 intronic element beta-lactamase assay (AID 624044). The conditions noted are these: S16 rat Schwann cells, PMP22 element beta-lactamase FRET, 24 h. In short, it runs like this: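 Beta-lactamase reporter under a PMP22 intronic regulatory element in stable S16 rat Schwann cells; 24 h compound exposure. 460 nm blue signal normalized between DMSO (0%) and potassium clavulanate, with 535 nm FRET tracking viability; curves classed by r2 and response.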

A short description of assay [7]: qHTS assay for small molecule antagonists of peroxisome proliferator-activated receptor delta signaling (AID 588535).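 Also: cells co-treated with a PPAR-delta agonist as stimulator during compound exposure.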 Conditions: HEK293T PPARd-UAS-bla, beta-lactamase FRET ratio, 18 h; 460 nm channel. A digest of the protocol:
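Titrations were run on PPAR-delta-UAS-bla HEK293T cells in charcoal/dextran-stripped serum, incubated 18 h at 37 C. CCF4 fluorescence (460/530 nm) after 2 h RT; Hill equation yields IC50 and maximal response.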

Assay [8] is described as follows: qHTS assay for small molecule antagonists of peroxisome proliferator-activated receptor gamma signaling (AID 588537). The conditions noted are these: HEK293 PPARg-UAS-bla, beta-lactamase ratio, antagonist mode; measured here: W460 blue channel. A digest of the protocol:
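Antagonist-mode β-lactamase reporter screen run as a titration series. HEK293 PPARγ-UAS-bla cells are stimulated with rosiglitazone (50 nM final) for 16 h, then CCF4 is read at 460/530 nm. Data are scaled between DMSO and rosiglitazone and fitted to the Hill equation.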

Assay [9] in a line: qHTS Validation Assay to Find Inhibitors of Chronic Active B-Cell Receptor Signaling (AID 485345). The conditions noted are these: ABC-DLBCL cells, chronic BCR signaling reporter. A digest of the protocol: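 Read-out: ratio of filter-corrected green (IkappaBalpha fusion) to red (native) luciferase signal in doxycycline-induced TMD8 cells after 4 h at 37C. Titration spanned 46 uM–3 nM; Data were normalised to basal cells and 10 uM MG-132 wells.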

The nature of assay [10]: qHTS Assay for Inhibitors of PDE-IV (AID 607). The conditions noted are these: HEK293 ACTOne CNG channel cells, membrane potential fluorescence; measured here: parental cell counter-screen. In short, it runs like this:
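The readout is membrane depolarisation from a cAMP-sensing CNG channel, detected with a potential dye at ex 535/em 590. Cells were HEK293-derived (endogenous PDE-IV) at 1000 cells/well, titrated up to 22.9 uM final.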

Where [11] appears, read: measured here: red reporter channel AC50, EF-alpha promoter control reporter in MSC80 mouse Schwann cells.
[12] abbreviates: TFE3-RCC UOK109 viability, measured here: UOK109 Z-AUC.
Setting [13] is: TFE3-RCC viability, measured here: UOK124 Z-AUC.
Where [14] appears, read: TFE3-RCC viability, measured here: UOK124 cell viability.
Setting [15] is: TFE3-RCC viability, measured here: UOK145 Z-AUC.
The mark [16] stands for this setting: TFE3-RCC viability, measured here: UOK145 cell viability.
The mark [17] stands for this setting: measured here: 460 nm blue channel.
Setting [18] is: measured here: green reporter channel AC50, mouse Pmp22 promoter in mouse Schwann cells.
Where [19] appears, read: measured here: CBG/CBR ratio read-out.
Where [20] appears, read: measured here: CBR control luciferase (viability counter).

As for `Cc1[nH]c(=O)c(C#N)cc1-c1ccc2nccn2c1`, the AC50 was 75.7 µM [falling, partial curve] in assay [1] (setting [11]) and 0.00148 µM [rising, full curve, poor fit] in assay [2] (setting [14]). The z-score in [2] (setting [12]) is 0.465; in assay [2] (setting [13]), -0.433; in assay [2] (setting [15]), -0.133.
As to `CCc1cc(C(N)=S)ccn1`, the values for the max response in assay [3] and in [4] were 7.97% and -9.3%, respectively. Further, the z-score in [2] (setting [12]) was 1.39; in assay [2] (setting [13]) it was 0.602; in assay [2] (setting [15]), -0.376. In [2] (setting [16]), the AC50 is 1.18 µM [falling, partial curve].
`C[C@H]1O[C@@H](n2cc(F)c(=O)[nH]c2=O)[C@H](O)[C@H]1O`: the viability change in assay [5] is -1.68%. Also, the values for the z-score in assay [2] (setting [12]), in assay [2] (setting [13]) and in [2] (setting [15]) were 0.712, 1.03 and 0.357, respectively. Besides, in assay [2] (setting [16]), the AC50 was 20.9 µM [falling, partial curve, poor fit].
`COc1c(C)c2c(c(O)c1CC=C(C)CCC(=O)OCCN1CCOCC1)C(=O)OC2`: the AC50 in [6] (setting [17]) was 2.82 µM [falling, full curve]; in assay [2] (setting [14]), 10.5 µM [falling, partial curve, poor fit]; in [2] (setting [16]), 1.32 µM [falling, full curve]. Also, the z-score in [2] (setting [12]) is 0.291; in assay [2] (setting [13]), 0.522; in assay [2] (setting [15]), -0.0136.
Turning to `CCCCC(CC)COC(=O)C(C#N)=C(c1ccccc1)c1ccccc1` (centres undefined), in assay [3], the max response amounted to 11.5%. The z-score in assay [2] (setting [12]) amounted to 1.37; in assay [2] (setting [13]), 0.715; in assay [2] (setting [15]) it was 1.23. Moreover, the AC50 in assay [2] (setting [16]) is 23.5 µM [falling, single point].
Regarding `O=C(O)c1cccc(-c2noc(-c3ccccc3F)n2)c1`, the AC50 in assay [6] (measured here: 530 nm viability channel) was 1.12 µM [falling, full curve, poor fit]. The z-score in assay [2] (setting [12]) was -0.641; in assay [2] (setting [13]), 0.618; in assay [2] (setting [15]) it was 0.715.
For `O=c1c(O)c(-c2ccc(O)cc2)oc2cc(O)cc(O)c12`, the max response in assay [3] was found to be 47%. Besides, the z-score in [2] (setting [12]) was -0.168; in assay [2] (setting [13]) it was 0.922; in assay [2] (setting [15]), 0.342. Moreover, the AC50 in assay [2] (setting [16]) was 13.2 µM [falling, partial curve, poor fit].
For the compound `Clc1ccc(C(c2ccccc2Cl)C(Cl)Cl)cc1` (centres undefined), the AC50 is 84.9 µM [falling, single point] in [1] (setting [18]); 50.1 µM [falling, single point] in assay [8]; 26.4 µM [falling, single point] in assay [2] (setting [14]); 0.0935 µM [falling, partial curve, poor fit] in assay [2] (setting [16]). The max response in assay [7] was -43.3%; in assay [3], 9.41% and 14.7%; in [4], -11.6% and 3.07%. In addition, the z-score in assay [2] (setting [12]) was 1.66; in assay [2] (setting [13]) it was -0.00754; in [2] (setting [15]) it was 1.13.
For the compound `CN1CCN(C2=Nc3ccccc3Oc3ccc(Cl)cc32)CC1`, the AC50 was 75.7 µM [falling, partial curve] in [1] (setting [18]) and 84.9 µM [falling, single point] in assay [1] (setting [11]).
For `C/C=C1\C(=O)CC2C3CCC4=CC(=O)CC[C@]4(C)C3CC[C@]12C` (some centres undefined), the AC50 in assay [1] (setting [18]) is 95.3 µM [falling, single point]; in [1] (setting [11]), 75.7 µM [falling, single point].
Consider `Clc1ccc2c(c1)C(N1CCNCC1)=Nc1ccccc1O2`, for which the half-maximal activity concentration (AC50) in assay [1] (setting [18]) was 30.1 µM [falling, full curve]; in assay [1] (setting [11]), 26.9 µM [falling, full curve]; in assay [9] (setting [19]), 16.4 µM [falling, single point]; in [9] (setting [20]), 29.1 µM [falling, single point]; in assay [6] (setting [17]), 5.62 µM [falling, full curve, poor fit]. Besides, in [5], the viability change is -13%.
Turning to `Cc1ccccc1CNc1ncnc2c1ncn2C1OC(CO)C(O)C1O` (centres undefined), the AC50 was 16.9 µM [falling, full curve] in assay [1] (setting [18]); 21.3 µM [falling, partial curve] in [1] (setting [11]); 0.731 µM [falling, full curve] in assay [9] (setting [19]); 0.291 µM [rising, full curve] in assay [9] (setting [20]). Besides, the viability change in [5] was -6.73%.
Take `C[C@]12CCC(=O)C=C1CC[C@@H]1[C@@H]2CC[C@@]2(C)[C@H]1CC[C@]2(O)C(=O)CO`: the AC50 in assay [1] (setting [11]) was 95.3 µM [falling, single point]; in assay [9] (setting [20]) it was 4.11 µM [rising, full curve]. In addition, the viability change in assay [5] was found to be 8.06%.
Consider `CNC(=O)[C@H]1O[C@@H](n2cnc3c(NCc4cccc(I)c4)ncnc32)[C@H](O)[C@H]1O`, for which the AC50 in [1] (setting [18]) is 75.7 µM [falling, single point]; in assay [1] (setting [11]), 84.9 µM [falling, single point].
Take `N=C1Sc2ccccc2C2=NCCCN12`: the AC50 in assay [1] (setting [18]) is 84.9 µM [falling, single point]; in assay [1] (setting [11]) it was 84.9 µM [falling, single point].
On to `COc1cccc2c1[C@@H]1CN(CCCCn3c(=O)[nH]c4c(sc5ncc(-c6ccccc6)nc54)c3=O)C[C@@H]1CO2`, for which the AC50 in assay [1] (setting [18]) was 30.1 µM [falling, full curve]; in assay [1] (setting [11]) it was 30.1 µM [falling, full curve, poor fit]; in [9] (setting [19]) it was 16.4 µM [falling, single point]; in assay [5], 29.1 µM [falling, partial curve, poor fit]. Further, in assay [5], the viability change was -27.9%.
In the case of `CCCNC[C@H](O)COc1ccccc1C(=O)CCc1ccccc1`, the AC50 was 0.0316 µM [rising, full curve, poor fit] in [10]; 42.6 µM [falling, partial curve] in [1] (setting [18]); 47.8 µM [falling, partial curve] in assay [1] (setting [11]).
In the case of `Cn1c(=O)c2[nH]c(C3CCCC3)nc2n(C)c1=O`, the AC50 in assay [1] (setting [18]) was 84.9 µM [falling, single point]; in [1] (setting [11]), 84.9 µM [falling, single point]; in assay [9] (setting [20]), 1.03 µM [falling, full curve].

What is called AC50 is the concentration at which the activity in the assay is half-maximal.
